Reference: PMC7819943, “Rice protein-binding microarrays: a tool to detect cis-acting elements near promoter regions in rice”
Some of the results follow.

Amino acid sequences for entries named in this document (tags omitted).
UniProt Q0JBA9, entry or part of it: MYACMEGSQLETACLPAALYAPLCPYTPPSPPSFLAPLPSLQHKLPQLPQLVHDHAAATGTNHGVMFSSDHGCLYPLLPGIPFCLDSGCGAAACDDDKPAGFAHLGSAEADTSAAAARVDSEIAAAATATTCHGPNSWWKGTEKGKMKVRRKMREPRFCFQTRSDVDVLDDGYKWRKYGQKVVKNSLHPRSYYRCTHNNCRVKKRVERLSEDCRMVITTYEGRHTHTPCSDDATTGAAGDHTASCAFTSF

target: OsWRKY34 (Oryza sativa, UniProt Q0JBA9 1-250); test: protein-binding microarray (RPBM); PBS, 2% BSA, 51.3 ng/ul salmon testes DNA, 50 uM zinc acetate, 200 nM TF, 25 C, 1 h; high values mean tight binding; settings: protein: recombinant; tags: N-terminal polyhistidine and DsRed monomer fusion (pET32a); label: CyDye5-dUTP incorporated in the synthesized complementary strand; 3' TTTTT single-stranded linker to array surface; dsDNA, one strand shown
Summary of the method: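 Per-feature fluorescence intensity (arbitrary units), read on an Axon 4000B scanner, is the binding signal. Transcription factors carrying an N-terminal polyhistidine tag and DsRed fusion were expressed in E. coli BL21-CodonPlus and purified on Ni–NTA. A custom Agilent array, made double-stranded by primer extension with Cy5-dUTP and blocked with 2% BSA, was incubated with 200 nM protein in PBS, 2% BSA, salmon testes DNA and 50 µM zinc acetate at 25 °C for 1 h and then washed.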

Sequence | binding signal
AGGCGCCTCTGCCCAAACAGTTTGACCGATTTTTGTCAACCGGAGTCACCTAGTGCAG | 10500 fluorescence intensity (a.u.)
GATTTTCTCATCTTACCTTAGGCTGAGTTCTTATCTCTAGCGGAGTCACCTAGTGCAG | 8370 fluorescence intensity (a.u.)
GTGCTTGTGTGGCGCGTGTGCTTGTCACAGACTCTGCTCCCGGAGTCACCTAGTGCAG | 8660 fluorescence intensity (a.u.)
ACCTCTCCCATCGCCGTACGTCCCCAGGATCCCTTCCCATCGGAGTCACCTAGTGCAG | 8230 fluorescence intensity (a.u.)
GCTTCAGGGCTTTGCCATCTTGTCTGTCAGTGTTCACTAACGGAGTCACCTAGTGCAG | 9480 fluorescence intensity (a.u.)
ATCGACTCTCTCATGGGGTATATATAGTAGTACATAGGGGCGGAGTCACCTAGTGCAG | 9120 fluorescence intensity (a.u.)
CGACTACTCGGCCGGCCACCTGCGCCGTCTCTACCCCGAGCGGAGTCACCTAGTGCAG | 9320 fluorescence intensity (a.u.)
AGTTTCCTAATCTATTATATGATAGTACTCGGTCGGAGCTCGGAGTCACCTAGTGCAG | 8480 fluorescence intensity (a.u.)
AGCACCATCTCCATCCAATAATCCCCATGCTTGCGCACCACGGAGTCACCTAGTGCAG | 10600 fluorescence intensity (a.u.)
CCTCGCTTAGATTCGCCATTACCGCCGCTTTTGTTCCCACCGGAGTCACCTAGTGCAG | 12000 fluorescence intensity (a.u.)
TTGCCTATTTGAAACTGCCACTCAATGTGTTTATAAATCTCGGAGTCACCTAGTGCAG | 9090 fluorescence intensity (a.u.)
GTACCGTTTGGATGTGTACAGAGAGGGGTGTGGGGCTCAACGGAGTCACCTAGTGCAG | 10300 fluorescence intensity (a.u.)
CTACAGCCTCACACCGTCTCTCCTGCACCAGTTCCACGGACGGAGTCACCTAGTGCAG | 9510 fluorescence intensity (a.u.)
TTGTCCTATTGTAGCTGCTTTTCAATTGACGTCATAGAATCGGAGTCACCTAGTGCAG | 8650 fluorescence intensity (a.u.)
CATCTCATTTTGTTCTTTTATTCTCATCACGTTTAATTATCGGAGTCACCTAGTGCAG | 9940 fluorescence intensity (a.u.)
TTCTCGCTGCTTCTACTACTCTTCCCGTGCTACGGTAGCGCGGAGTCACCTAGTGCAG | 8920 fluorescence intensity (a.u.)
AGAAATTTAATATTGCATCTTTCTATCTCTCTAGCTATCCCGGAGTCACCTAGTGCAG | 8270 fluorescence intensity (a.u.)
GCTTTTGGACAGGGTTGACTTTACTTCTTTGAGCCTCTCACGGAGTCACCTAGTGCAG | 14800 fluorescence intensity (a.u.)
TAAGTGGACCTATAGGTGCACACGTGGGGAGAGGGGCGTGCGGAGTCACCTAGTGCAG | 9170 fluorescence intensity (a.u.)
GCAGCACTCAGCTCACCATTCTTCTGAGAGGTTTGTATAACGGAGTCACCTAGTGCAG | 8430 fluorescence intensity (a.u.)
ACTATCCAACCAAATCCGTTGCTTTCCATGACCACACACGCGGAGTCACCTAGTGCAG | 8540 fluorescence intensity (a.u.)

Sequence | binding signal
AGTGATCCGTTCATTCTTCGCTGCGCCTGCGATTTGTCCGCGGAGTCACCTAGTGCAG | 8860 fluorescence intensity (a.u.)
CTTGGGAATATGTCGCTCGGCCGACCTCTCGTATTATTGACGGAGTCACCTAGTGCAG | 8740 fluorescence intensity (a.u.)
CCGCCGCCATCCACACGCCGTGCCGCAGATCCTATCTCCCCGGAGTCACCTAGTGCAG | 8930 fluorescence intensity (a.u.)
CGCCGTGACAATTCCCGCTGTATCATCCGTTGTTCGGATCCGGAGTCACCTAGTGCAG | 12200 fluorescence intensity (a.u.)
AACACACCCTTAGTACTGGATCCAAACATCACATTACTCCCGGAGTCACCTAGTGCAG | 8450 fluorescence intensity (a.u.)
ATATTTTGCTTACACTGTTTGACTATTCGTCTTATAATTTCGGAGTCACCTAGTGCAG | 14000 fluorescence intensity (a.u.)
CCAGTTGGCTCTATGCCATGCCGCTTTCAGTCTCTCTGATCGGAGTCACCTAGTGCAG | 9520 fluorescence intensity (a.u.)
ACATTTTTGCCGATCAAGCTATCATTGGGCACATTAATTCCGGAGTCACCTAGTGCAG | 10400 fluorescence intensity (a.u.)
GACAATTTCTTTTTCCGATGGGATTTTAGTTTTTTGTTTTCGGAGTCACCTAGTGCAG | 9700 fluorescence intensity (a.u.)
TCCATCCAACCATTGTAATTACTACTCCCTCCGTATTTTACGGAGTCACCTAGTGCAG | 8880 fluorescence intensity (a.u.)
GCCCTTGCCGCCACGCCACCCGCCCGCCGCTACCGCCGCTCGGAGTCACCTAGTGCAG | 12600 fluorescence intensity (a.u.)
ATATTGTTCATTCTGCCCAATTACTTCTACTCTTATTCATCGGAGTCACCTAGTGCAG | 11300 fluorescence intensity (a.u.)
AGTCGTCACATCACTTACCGCACACATGCTCTTTCGGAATCGGAGTCACCTAGTGCAG | 11800 fluorescence intensity (a.u.)
TATTCAGTCCTATGTTCTCGTGGTTCGTCCATGCAAACCACGGAGTCACCTAGTGCAG | 8460 fluorescence intensity (a.u.)
GGTTTATTGGTTCGCGAATCCGCGGCGGGGCGCGGGTGGTCGGAGTCACCTAGTGCAG | 8360 fluorescence intensity (a.u.)
CGCCTATTCCGTTCTTCGTTATTTTCCTTCACTACTTACTCGGAGTCACCTAGTGCAG | 10300 fluorescence intensity (a.u.)
CCGTCTCTTTGTCTCCTCCGCTCCTTGCGCCGCCGCCAAGCGGAGTCACCTAGTGCAG | 10800 fluorescence intensity (a.u.)
AGTATTTCTTGCTTTACCACTGTGCAGGTAGCTCGCCATGCGGAGTCACCTAGTGCAG | 11100 fluorescence intensity (a.u.)
TCGTGTTGCTGCTTAATTGCTGTGCTTCTCCATCGCCATGCGGAGTCACCTAGTGCAG | 9940 fluorescence intensity (a.u.)
ATCTATGTCAGCATATTTTCCTACTTGGAATGTATTAAATCGGAGTCACCTAGTGCAG | 8410 fluorescence intensity (a.u.)
CGCGCCATCATGTCGTCCTCGAGCCCCACGCGCCATCATGCGGAGTCACCTAGTGCAG | 8940 fluorescence intensity (a.u.)

A second format for some results above:
AACACACCCTTAGTACTGGATCCAAACATCACATTACTCCCGGAGTCACCTAGTGCAG
  binding signal: 8450 fluorescence intensity (a.u.)
ATATTTTGCTTACACTGTTTGACTATTCGTCTTATAATTTCGGAGTCACCTAGTGCAG
  binding signal: 14000 fluorescence intensity (a.u.)
AGTCGTCACATCACTTACCGCACACATGCTCTTTCGGAATCGGAGTCACCTAGTGCAG
  binding signal: 11800 fluorescence intensity (a.u.)
